Measurements taken from the supplement of paper PMC8426693.
Some of the results follow.

How the values were obtained:
Test in all cases: NMR binding call after quantification (hit when 2 of 3 NMR criteria are met) (binary (1 = binding, 0 = not binding)); higher = binding
Details in all cases: RNA concentration 10 µM; fragment concentration 200 µM; 293 K
SARS-CoV-2 3'-UTR RNA = system: SARS-CoV-2 3'-UTR RNA
SARS-CoV-2 3_SL1 RNA = system: SARS-CoV-2 3_SL1 RNA
SARS-CoV-2 3_SL1+2 RNA = system: SARS-CoV-2 3_SL1+2 RNA
SARS-CoV-2 3_SL2 RNA = system: SARS-CoV-2 3_SL2 RNA
SARS-CoV-2 3_SL3base RNA = system: SARS-CoV-2 3_SL3base RNA
SARS-CoV-2 3_s2m RNA = system: SARS-CoV-2 3_s2m RNA

Measured: NMR binding call

CCOC(=O)N1CCOCC1
0: all assays above

CCc1nnc(NC(=O)CN(C)C)s1
0: all assays above

COc1ccc(N2CC(C(N)=O)CC2=O)cc1 (configuration not stated)
0: all assays above

CC(=O)N1Cc2ccc(N)cc2C1
0: all assays above

CN1CCN(CCN)CC1(C)C
0: all assays above

Reprinted at random: 2 records from the list.
CCc1nnc(NC(=O)CN(C)C)s1
0: all assays above

COc1ccc(N2CC(C(N)=O)CC2=O)cc1 (configuration not stated)
0: all assays above

Further records

COCC(=O)NCc1ccc(C)cc1
0: all assays above

CCc1ccc(C(=O)NCc2cnn(C)c2)s1
0: all assays above

Cn1ccc(NCc2ccccc2)n1
0: all assays above

OCc1ccccc1N1CCOCC1
0: all assays above

Cc1cc(NC(=O)CCC2CCCCC2)no1
0: all assays above

O=C(NCCc1ccc(O)cc1)c1ccccn1
0: all assays above

CNS(=O)(=O)CC1CCCCC1
0: all assays above

COC(=O)CNC(=O)C1CCCCC1
0: all assays above

Nc1ccccc1N1CCOCC1
0: all assays above

CCOc1ccccc1N1CCNCC1.Cl
0: all assays above

CCCn1nnnc1NC(=O)c1ccco1
0: all assays above

COc1cccc2c1CCCC(=O)N2
0: all assays above

As a short view, 13 of the compounds above:
CC(=O)N1Cc2ccc(N)cc2C1
0: all assays above

CN1CCN(CCN)CC1(C)C
0: all assays above

COCC(=O)NCc1ccc(C)cc1
0: all assays above

CCc1ccc(C(=O)NCc2cnn(C)c2)s1
0: all assays above

Cn1ccc(NCc2ccccc2)n1
0: all assays above

OCc1ccccc1N1CCOCC1
0: all assays above

Cc1cc(NC(=O)CCC2CCCCC2)no1
0: all assays above

O=C(NCCc1ccc(O)cc1)c1ccccn1
0: all assays above

CNS(=O)(=O)CC1CCCCC1
0: all assays above

COC(=O)CNC(=O)C1CCCCC1
0: all assays above

Nc1ccccc1N1CCOCC1
0: all assays above

CCOc1ccccc1N1CCNCC1.Cl
0: all assays above

CCCn1nnnc1NC(=O)c1ccco1
0: all assays above

Remaining list, next part:

CCCC(=O)Nc1nnn(CC)n1
0: all assays above

COCC(=O)Nc1cccc(NC(C)=O)c1
0: all assays above

CCc1noc(C)c1C(=O)Nc1cc(C)on1
0: all assays above

CS(=O)(=O)N1CCC(O)CC1
0: all assays above

Cc1ccc(CC(=O)NCC2CCCO2)cc1 (configuration not stated)
0: all assays above

c1csc(CNCc2ccncc2)c1
0: all assays above

Cc1cccc(NC(=O)C2CCCN2)n1 (configuration not stated)
0: all assays above

CNC(=O)NCc1c(F)cccc1Cl
0: all assays above

CC(Oc1ccccc1F)C(=O)O (configuration not stated)
0: all assays above

CC(C)(CO)NC(=O)c1cccc(Cl)c1
0: all assays above

O=C(C1CC1)N1CCN(c2ccc(F)cc2)CC1
0: all assays above

O=C(COc1ccccc1)N1CCCC1
0: all assays above

CC(C)(N)CN1CCCC1
0: all assays above

Cc1cc(C(=O)NCC2CCOC2)on1 (configuration not stated)
0: all assays above

CC(C)(CO)NC(=O)Nc1ccc(Cl)cc1
0: all assays above

CNC(=O)c1c(-c2ccc(F)cc2)noc1C
0: all assays above

CNC1CCCCC1S(C)(=O)=O (configuration not stated)
0: all assays above

COc1ccc(CC(=O)Nc2nncs2)cc1
0: all assays above

Cc1cncc(NCc2ccncc2)c1
0: all assays above

CCC(C)NC(=O)c1ccccc1N (configuration not stated)
0: all assays above

COc1ccc(CCC2(C)NC(=O)NC2=O)cc1 (configuration not stated)
0: all assays above

CCc1ccc(NC(=O)c2cnccn2)cc1
0: all assays above

Cc1nc(CN2CCC(CN)CC2)cs1
0: all assays above

CC(=O)Nc1cnccc1C
0: all assays above

Oc1cccc(CN2CCSCC2)c1
0: all assays above

COc1ccc(CNC2CCCC2)cc1
0: all assays above

CCOC(=O)c1ccc(F)cc1F
0: all assays above

CCOC(=O)c1cn[nH]c1
0: all assays above

CC(C)CNC(=O)c1ccc2ccccc2c1
0: all assays above

CS(=O)(=O)Nc1ccc(C(N)=O)cc1
0: all assays above

COc1ccccc1N1CCN(CC#N)CC1
0: all assays above

OCC1CN(Cc2ccccc2)CCO1 (configuration not stated)
0: all assays above

CCC(=O)Nc1c(C(N)=O)oc2ccccc12
0: all assays above

CS(=O)(=O)NC1CCCC1
0: all assays above

NC(=O)c1ccc(NC(=O)C2CCCC2)cc1
0: all assays above
